Measured values reported in article PMC12796488.
Results are given in words; binding and its absence hold for the method and conditions named. Some results given as binding are weak or reduced against the parent protein; the word gives no strength.

Chains of the proteins cited; added tags and fusions are not shown.
UniProt Q9HT15: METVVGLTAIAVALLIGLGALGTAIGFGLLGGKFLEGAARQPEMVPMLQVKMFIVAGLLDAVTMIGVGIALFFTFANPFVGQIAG
UniProt Q9HT18: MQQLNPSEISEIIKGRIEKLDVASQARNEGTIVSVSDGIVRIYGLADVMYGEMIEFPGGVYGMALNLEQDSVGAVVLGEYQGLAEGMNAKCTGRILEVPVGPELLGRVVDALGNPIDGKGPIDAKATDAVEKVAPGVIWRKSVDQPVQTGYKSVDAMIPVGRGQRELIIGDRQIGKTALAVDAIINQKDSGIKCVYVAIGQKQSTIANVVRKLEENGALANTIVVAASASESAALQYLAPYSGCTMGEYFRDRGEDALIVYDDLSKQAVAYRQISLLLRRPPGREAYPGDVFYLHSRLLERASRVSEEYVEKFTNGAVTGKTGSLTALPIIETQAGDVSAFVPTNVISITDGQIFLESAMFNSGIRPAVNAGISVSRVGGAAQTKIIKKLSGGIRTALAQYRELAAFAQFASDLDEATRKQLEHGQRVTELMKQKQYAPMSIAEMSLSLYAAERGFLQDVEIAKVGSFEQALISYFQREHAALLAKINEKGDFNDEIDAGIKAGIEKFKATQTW
UniProt Q9HT20: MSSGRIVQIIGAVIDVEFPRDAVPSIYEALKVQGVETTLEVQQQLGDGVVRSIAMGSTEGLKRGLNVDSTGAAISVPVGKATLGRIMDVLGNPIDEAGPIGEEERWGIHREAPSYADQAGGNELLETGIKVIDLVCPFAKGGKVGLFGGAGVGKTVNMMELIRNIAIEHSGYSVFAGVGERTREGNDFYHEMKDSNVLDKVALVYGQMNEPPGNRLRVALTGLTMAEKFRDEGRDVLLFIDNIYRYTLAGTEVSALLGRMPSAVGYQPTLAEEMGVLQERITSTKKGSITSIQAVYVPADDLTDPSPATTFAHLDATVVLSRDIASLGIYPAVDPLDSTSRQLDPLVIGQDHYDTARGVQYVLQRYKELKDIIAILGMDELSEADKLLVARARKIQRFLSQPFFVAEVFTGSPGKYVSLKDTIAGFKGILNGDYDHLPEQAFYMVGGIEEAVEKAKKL

What was measured:
[1] = biological target: P. aeruginosa ATP synthase subunit c (Pseudomonas aeruginosa) (UniProt Q9HT15); test: cryo-EM structure; purified F1Fo complex in digitonin; 10 mM MgADP and 230 uM compound #5 added, 1 h on ice before freezing; maps at 2.0-3.0 Å; both purified
[2] = biological target: P. aeruginosa ATP synthase subunit α (Pseudomonas aeruginosa) (UniProt Q9HT18); test: as above
[3] = biological target: P. aeruginosa ATP synthase subunit β (Pseudomonas aeruginosa) (UniProt Q9HT20); test: as above
[4] = biological target: T1, P. aeruginosa ATP synthase subunit γ (Pseudomonas aeruginosa) (UniProt Q9HT19); test: as above
T1 sequence: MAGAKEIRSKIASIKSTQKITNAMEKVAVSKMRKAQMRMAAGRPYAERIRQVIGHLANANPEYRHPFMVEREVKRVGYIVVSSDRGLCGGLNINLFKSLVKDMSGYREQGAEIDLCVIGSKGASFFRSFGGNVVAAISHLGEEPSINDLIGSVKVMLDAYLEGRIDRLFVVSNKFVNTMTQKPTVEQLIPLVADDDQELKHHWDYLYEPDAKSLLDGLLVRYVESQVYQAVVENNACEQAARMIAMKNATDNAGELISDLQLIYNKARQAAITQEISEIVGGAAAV

[5] = biological target: P. aeruginosa ATP synthase subunit α (Pseudomonas aeruginosa) (UniProt Q9HT18); test: cryo-EM structure; purified F1Fo complex in digitonin; 10 mM MgATP, 22 °C for 30 s before freezing; State 2 maps at ~3.5 Å; classes with εCTD "up" and "down"; both purified
[6] = biological target: P. aeruginosa ATP synthase subunit β (Pseudomonas aeruginosa) (UniProt Q9HT20); test: as above
[7] = biological target: T1, P. aeruginosa ATP synthase subunit γ (Pseudomonas aeruginosa); test: as above

binding [1]: binds
binding [2]: binds
binding [3]: binds
binding [4]: binds
binding [5]: binds
binding [6]: binds
binding [7]: binds
B1: P. aeruginosa ATP synthase subunit ε (protein, UniProt Q9HT21 1-141)
chain: MAITVHCDIVSAEAEIFSGLVEMVIAHGALGDLGIAPGHAPLITDLKPGPIRLVKQGGEQEVYYISGGFLEVQPNMVKVLADTVVRAGDLDEAAAQEALKAAEKALQGKGAEFDYSAAAARLAEAAAQLRTVQQLRKKFGG
